Values joined by “and” are separate entries in the source; they are usually repeats but may differ in a detail not shown here. Equal entries are not always repeated. In all, about 390,000 compounds went through this assay and about 4,000 (1%) were called active. Inconclusive means that the source gave no clear call. Such entries were picked first, then a sample of the others. Calls come from the whole dose curve; as a rule, active = well fitted inhibition curve with a large enough effect; inconclusive = small, poorly fitted or top-dose-only effect, or another doubt; inactive = no such curve, though single readings can be large or run the other way. Where the call is inconclusive, the potency comes from a doubtful curve fit. Residues, ends and D or L forms follow the SMILES beside them.
target: DNA polymerase iota (Homo sapiens) (UniProt Q9UNA4); assay: qHTS for Inhibitors of Polymerase Iota; settings: Pol iota fluorescent replication assay, 10 min; series mostly up to 115 µM; activity, negative = inhibition: at the top concentration
In short: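 Fluorescent replication assay read twice, at 0 min and 10 min after adding 50 nM (final) substrate. Enzyme (10 nM) and compounds were first incubated 15 min at room temperature; enzyme-free buffer wells were negative controls.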
Potency is the fitted concentration of half-maximal effect.

By UniProt entry, the sequences of proteins in these tests, tags left out. Where a name states a change or a piece, a line headed by the entry shows the natural chain unless it says otherwise.
UniProt Q9UNA4: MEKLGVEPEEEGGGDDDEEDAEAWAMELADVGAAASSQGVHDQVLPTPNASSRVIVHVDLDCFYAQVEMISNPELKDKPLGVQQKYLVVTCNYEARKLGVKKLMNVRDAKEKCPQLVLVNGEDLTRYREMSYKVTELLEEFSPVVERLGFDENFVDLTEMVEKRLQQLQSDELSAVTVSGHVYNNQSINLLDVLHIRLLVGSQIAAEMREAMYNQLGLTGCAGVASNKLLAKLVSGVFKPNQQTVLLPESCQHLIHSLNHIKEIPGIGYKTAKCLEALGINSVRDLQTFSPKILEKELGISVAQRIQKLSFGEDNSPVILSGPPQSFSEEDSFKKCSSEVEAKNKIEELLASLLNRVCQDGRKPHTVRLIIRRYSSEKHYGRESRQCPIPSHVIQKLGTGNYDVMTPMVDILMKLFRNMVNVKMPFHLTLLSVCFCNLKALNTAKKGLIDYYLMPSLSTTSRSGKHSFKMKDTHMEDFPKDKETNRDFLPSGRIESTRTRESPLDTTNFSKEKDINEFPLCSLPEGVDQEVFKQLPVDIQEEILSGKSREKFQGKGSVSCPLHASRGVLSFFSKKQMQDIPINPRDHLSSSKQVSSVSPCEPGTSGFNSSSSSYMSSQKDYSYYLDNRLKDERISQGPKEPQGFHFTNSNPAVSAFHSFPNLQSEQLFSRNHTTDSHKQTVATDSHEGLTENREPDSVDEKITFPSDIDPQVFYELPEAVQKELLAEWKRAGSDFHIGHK

SMILES | Potency | activity, negative = inhibition
COc1ccc2c(COC(=O)c3n[nH]c4ccccc34)cc(=O)oc2c1 | inconclusive: 25.1 µM [inhibitor, partial curve] | –
c1ccc(-c2cc(N3CCOCC3)nc(-c3ccccc3)n2)cc1 | inconclusive: 100 µM [inhibitor, partial curve, poor fit] | –
Cc1cc(C)cc(OCC(=O)Nc2cccc(-c3nc4ccccc4[nH]3)c2)c1 | inconclusive: 79.4 µM [inhibitor, single point] | –
O=C(O)c1ccccc1NS(=O)(=O)c1ccc(NN=Cc2ccc(F)cc2)c([N+](=O)[O-])c1 | – | inactive: -18%
Cc1cc(C)c(C(=O)/C=C/c2ccco2)c(=O)[nH]1 | inconclusive: 6.31 µM [inhibitor, single point] | –
CCOC(=O)c1cc2c(=O)n3ccccc3nc2n(Cc2ccco2)c1=NC(=O)c1ccccc1OC | inconclusive: 50.1 µM [inhibitor, partial curve, poor fit] and inconclusive: 15.8 µM [inhibitor, full curve, poor fit] | –
Cc1ccc(NC(=O)C2CCCN(c3nnc(C)c4c(C)n(-c5ccccc5)nc34)C2)cc1Cl (centres undefined) | inconclusive: 39.8 µM [inhibitor, partial curve, poor fit] | –
COc1ccc(N=Nc2[nH]c3ccc(C)cc3c2O)cc1 | inconclusive: 89.1 µM [inhibitor, partial curve, poor fit] | –
O=C(NC1CCCCCC1)C1CCCN1S(=O)(=O)c1cccc2cccnc12 (centres undefined) | inconclusive: 0.501 µM [inhibitor, full curve, poor fit] | –
CC(/C=N\Nc1nnc2c(n1)[nH]c1c(C)cccc12)=C\c1ccco1 | inconclusive: 100 µM [inhibitor, partial curve] | –
CN(C)CCCNc1nc(-c2ccccc2)nc2ccccc12 | – | inactive: 18.2%
COc1ccc2[nH]cc(CCNC(=O)c3ccco3)c2c1 | inconclusive: 79.4 µM [inhibitor, single point] | –
CCCCOCCCNC(=S)Nc1ccc(S(=O)(=O)N2CCOCC2)cc1 | inconclusive: 0.316 µM [inhibitor, full curve, poor fit] | –
COc1ccc(C(CNC(=O)c2cccc(S(=O)(=O)Nc3ccccc3Cl)c2)N2CCOCC2)cc1 (centres undefined) | inconclusive: 50.1 µM [inhibitor, partial curve] | –
CCC(=O)Nc1ccc(C(=O)OCc2ccccc2)cc1 | inconclusive: 89.1 µM [inhibitor, partial curve, poor fit] | –
Cc1ccccc1-c1nc(CS(=O)(=O)CC(=O)NCCN2CCCC2)c(C)o1 | inconclusive: 63.1 µM [inhibitor, partial curve, poor fit] | –
CCOC(=O)c1sc2nc3c(SCC(=O)O)cc(C(=O)c4cc(F)ccc4O)cn3c(=O)c2c1C | inconclusive: 22.4 µM [inhibitor, full curve, poor fit] | –
Cc1c(C)c2cc(Cl)c(O)c(CN3CCN(C)CC3)c2oc1=O | inconclusive: 17.8 µM [inhibitor, partial curve, poor fit] | –
CC(=O)c1ccc(NC(=O)C2CCCN(S(=O)(=O)c3cn(C)cn3)C2)cc1 (centres undefined) | – | inactive: 1.88%
Clc1c(CSc2nc3ccccc3o2)nc2ccccn12 | inconclusive: 39.8 µM [inhibitor, single point] | –

SMILES | Potency | activity, negative = inhibition
CC(C)CCn1c(=O)c2sccc2n2c(CCCC(=O)N3CCC(N4CCCCC4)CC3)nnc12 | inconclusive: 39.8 µM [inhibitor, single point] | –
CC(=O)N1N=C(c2ccc(C)o2)CC1c1cccc(F)c1 (centres undefined) | inconclusive: 22.4 µM [inhibitor, partial curve, poor fit] | –
O=C(NNc1nc(-c2ccccc2)cs1)c1cccs1 | inconclusive: 25.1 µM [inhibitor, single point] | –
C=CCNC(=O)/C(C#N)=C/c1ccccc1OCc1ccc(C(=O)OC)cc1 | inconclusive: 22.4 µM [inhibitor, full curve, poor fit] | –
Cc1cccc(NS(=O)(=O)c2ccc3[nH]c(=O)cc(C(=O)O)c3c2)c1 | inconclusive: 56.2 µM [inhibitor, partial curve, poor fit] | –
CCCC(C)C(=O)Nc1ncc(S(=O)(=O)c2ccc([N+](=O)[O-])cc2)s1 (centres undefined) | inconclusive: 89.1 µM [inhibitor, single point] | –
O=C(c1cc2sccc2n1Cc1ccc(F)cc1)N1CCc2ccccc21 | inconclusive: 25.1 µM [inhibitor, single point] | –
CSc1nc2c(c(=O)[nH]c(=O)n2C)n1CCCc1ccccc1 | inconclusive: 79.4 µM [inhibitor, partial curve] | –
O=C(NCc1cccc(F)c1)C1CCC(=O)N(C2CC2)C1 (centres undefined) | inconclusive: 89.1 µM [inhibitor, single point] | –
CC(=O)c1cccc(NC(=O)Cn2cc(C(=O)c3cccc(Cl)c3)c(=O)c3ccc(C)nc32)c1 | active: 89.1 µM | –
O=C1C(Cl)=C(N2CCCCC2)C(=O)C(Cl)=C1c1cnc(N2CCCCC2)s1 | inconclusive: 11.2 µM [inhibitor, full curve, poor fit] | –
COc1cc(/C=N/Nc2nncn2N)ccc1OCc1c(C)no[n+]1[O-] | active: 7.08 µM | –
Cc1cccc2c(=O)cc(CSc3ccccc3NC(=O)C(C)(C)C)[nH]c12 | – | inactive: -24%
NC(=O)C(CC(=O)O)NC(=O)[C@@H]1CCOc2c(I)cc([N+](=O)[O-])cc2C(=O)N[C@@H](CO)C(=O)N[C@@H](Cc2ccc(O)cc2)C(=O)N1 (some centres undefined) (HELM PEPTIDE1{S.Y.[O=C([C@H](CCOc1c(I)cc([N+](=O)[O-])cc1C(=O)[*:3])N[*:1])[*:2]].[O=C(O)CC(N[*:1])C(=O)[*:2]].[am]}$PEPTIDE1,PEPTIDE1,1:R1-3:R3$$$V2.0) | inconclusive: 31.6 µM [inhibitor, partial curve, poor fit] | –
C=CCN1C(=O)/C(=C/C=C2/N(CC)c3ccc(S(=O)(=O)N(C)C)cc3N2CC)SC1=S | inconclusive: 3.55 µM [inhibitor, partial curve, poor fit] | –
CSCCC(NC(=O)c1ccc(=O)n(C)n1)c1nc2ccccc2[nH]1 (centres undefined) | inconclusive: 39.8 µM [inhibitor, single point] | –
COc1ccc(OC)c(S(=O)(=O)N2CCN(Cc3nc4ccc(C)cc4o3)CC2)c1 | inconclusive: 89.1 µM [inhibitor, partial curve, poor fit] | –
CN1CCN(Cc2nc3ccccc3c(=O)n2Cc2nc(-c3ccc4ccccc4c3)cs2)CC1 | inconclusive: 112 µM [inhibitor, partial curve, poor fit] and inconclusive: 35.5 µM [inhibitor, full curve] | –
CCOC(=O)Cc1ccc2sc(-c3ccccc3)nc2c1 | – | inactive: 2.99%
O=C(Cc1ncc(C(F)(F)F)cc1Cl)NCCc1ccccn1 | inconclusive: 89.1 µM [inhibitor, single point] | –

Whole records from above.
O=C(c1cc2sccc2n1Cc1ccc(F)cc1)N1CCc2ccccc21 is listed as Potency: inconclusive: 25.1 µM [inhibitor, single point]
CCOC(=O)Cc1ccc2sc(-c3ccccc3)nc2c1 is listed as activity, negative = inhibition: inactive: 2.99%
CN1CCN(Cc2nc3ccccc3c(=O)n2Cc2nc(-c3ccc4ccccc4c3)cs2)CC1 is listed as Potency: inconclusive: 112 µM [inhibitor, partial curve, poor fit] and inconclusive: 35.5 µM [inhibitor, full curve]

Next part

SMILES | Potency | activity, negative = inhibition
Cc1ccc(NC(=O)COCC(=O)Nc2ccc(C)cc2)cc1 | – | inactive: -19%
C/C(=N\Nc1nc(-c2cc(C)ccc2C)cs1)c1cc2c(ccc3ccccc32)oc1=O | inconclusive: 112 µM [inhibitor, partial curve, poor fit] | –
CN(Cc1cnn(C)c1)C(=O)c1ccc(OC2CCN(CCc3ccccc3)CC2)cc1 | inconclusive: 100 µM [inhibitor, single point] | –
Cc1ccc(CNC(=O)Cn2ccn(-c3ccc(F)cc3)c(=O)c2=O)cc1 | – | inactive: 37.4%
COc1ccc(CCn2c(NN)nc3c2c(=O)[nH]c(=O)n3C)cc1 | active: 25.1 µM | –
Cc1ccc(NC(=O)c2c(C)oc3ncn(CC(C)C)c(=O)c23)nc1 | – | inactive: -8.09%
Cc1cc2oc(=O)cc(C)c2cc1NC(=O)CCl | inconclusive: 63.1 µM [inhibitor, partial curve, poor fit] | –
NC(=O)c1nsc(C(=O)N(c2ccc(F)cc2)C(C(=O)NC2CCCC2)c2ccncc2)c1N (centres undefined) | inconclusive: 28.2 µM [inhibitor, single point] | –
CCN(CC)c1ccc2c(Cl)cc(=O)oc2c1 | inconclusive: 0.708 µM [inhibitor, full curve, poor fit] | –
COc1cc(/C=N/N2C(=O)CSC2=S)cc(Br)c1O | inconclusive: 56.2 µM [inhibitor, partial curve, poor fit] | –
COC(=O)c1ccccc1NC(=O)Oc1ccc(C(C)C)cc1 | inconclusive: 89.1 µM [inhibitor, single point] | –
C/C=C(\C)CN1CCN(c2cccc(C)c2C)CC1 | inconclusive: 39.8 µM [inhibitor, full curve] | –
Clc1cccc(-n2ncc3c(NCCCN4CCOCC4)ncnc32)c1 | – | inactive: 17.8%
CS(=O)(=O)c1ncc(Cl)c(C(=O)Nc2c(C(=O)c3ccc(Cl)cc3)oc3ccccc23)n1 | inconclusive: 39.8 µM [inhibitor, single point] | –
O=C(O)c1ccc(CSc2nc(-c3ccc(Cl)cc3)cc(C(F)(F)F)n2)cc1 | inconclusive: 10 µM [inhibitor, full curve, poor fit] | –
CCCS(=O)(=O)C(=C1Nc2ccccc2N1)S(=O)(=O)CCC | – | inactive: 2.05%
Cc1cccc(Nc2nc3c(S(=O)(=O)c4ccc(Br)cc4)nnn3c3ccsc23)c1C | – | inactive: -7.07%
CCc1ccc(C2C(C#N)=C(N)SC(N)=C2C#N)s1 | inconclusive: 14.1 µM [inhibitor, partial curve] | –
O=C(CC1Sc2ccccc2NC1=O)NNc1ccc(F)cc1 (centres undefined) | inconclusive: 14.1 µM [inhibitor, partial curve, poor fit] | –

— PubChem BioAssay AID588590 (National Center for Advancing Translational Sciences (NCATS), 2011)
